Experimental data as given in the supplement of paper PMC11006884.
The list shows a part of the results, in another mix than the full data.

The chains behind the UniProt entries cited, without tags or fusion partners. Where a name states a change or a piece, a line headed by the entry shows the natural chain unless it says otherwise.
UniProt O75521: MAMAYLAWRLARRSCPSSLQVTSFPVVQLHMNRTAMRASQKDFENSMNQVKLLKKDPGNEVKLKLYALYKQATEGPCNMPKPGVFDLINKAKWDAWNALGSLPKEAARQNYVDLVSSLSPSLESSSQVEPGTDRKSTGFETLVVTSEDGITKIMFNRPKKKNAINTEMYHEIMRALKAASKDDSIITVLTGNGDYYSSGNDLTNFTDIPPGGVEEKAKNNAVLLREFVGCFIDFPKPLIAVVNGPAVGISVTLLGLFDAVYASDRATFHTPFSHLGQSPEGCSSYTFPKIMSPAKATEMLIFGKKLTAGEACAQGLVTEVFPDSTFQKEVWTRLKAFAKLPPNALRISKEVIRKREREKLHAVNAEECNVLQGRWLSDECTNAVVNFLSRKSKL
UniProt O60870: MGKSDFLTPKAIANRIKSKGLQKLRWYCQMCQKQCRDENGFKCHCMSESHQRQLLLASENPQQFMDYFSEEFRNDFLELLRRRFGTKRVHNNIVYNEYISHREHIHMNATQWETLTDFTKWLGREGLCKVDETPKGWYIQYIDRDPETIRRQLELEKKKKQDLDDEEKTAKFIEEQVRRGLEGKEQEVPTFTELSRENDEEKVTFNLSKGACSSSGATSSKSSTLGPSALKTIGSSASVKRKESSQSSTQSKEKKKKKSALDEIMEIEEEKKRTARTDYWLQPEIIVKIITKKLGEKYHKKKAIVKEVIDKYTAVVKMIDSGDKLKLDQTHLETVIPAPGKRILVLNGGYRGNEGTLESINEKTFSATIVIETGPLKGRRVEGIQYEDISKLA
UniProt O60763: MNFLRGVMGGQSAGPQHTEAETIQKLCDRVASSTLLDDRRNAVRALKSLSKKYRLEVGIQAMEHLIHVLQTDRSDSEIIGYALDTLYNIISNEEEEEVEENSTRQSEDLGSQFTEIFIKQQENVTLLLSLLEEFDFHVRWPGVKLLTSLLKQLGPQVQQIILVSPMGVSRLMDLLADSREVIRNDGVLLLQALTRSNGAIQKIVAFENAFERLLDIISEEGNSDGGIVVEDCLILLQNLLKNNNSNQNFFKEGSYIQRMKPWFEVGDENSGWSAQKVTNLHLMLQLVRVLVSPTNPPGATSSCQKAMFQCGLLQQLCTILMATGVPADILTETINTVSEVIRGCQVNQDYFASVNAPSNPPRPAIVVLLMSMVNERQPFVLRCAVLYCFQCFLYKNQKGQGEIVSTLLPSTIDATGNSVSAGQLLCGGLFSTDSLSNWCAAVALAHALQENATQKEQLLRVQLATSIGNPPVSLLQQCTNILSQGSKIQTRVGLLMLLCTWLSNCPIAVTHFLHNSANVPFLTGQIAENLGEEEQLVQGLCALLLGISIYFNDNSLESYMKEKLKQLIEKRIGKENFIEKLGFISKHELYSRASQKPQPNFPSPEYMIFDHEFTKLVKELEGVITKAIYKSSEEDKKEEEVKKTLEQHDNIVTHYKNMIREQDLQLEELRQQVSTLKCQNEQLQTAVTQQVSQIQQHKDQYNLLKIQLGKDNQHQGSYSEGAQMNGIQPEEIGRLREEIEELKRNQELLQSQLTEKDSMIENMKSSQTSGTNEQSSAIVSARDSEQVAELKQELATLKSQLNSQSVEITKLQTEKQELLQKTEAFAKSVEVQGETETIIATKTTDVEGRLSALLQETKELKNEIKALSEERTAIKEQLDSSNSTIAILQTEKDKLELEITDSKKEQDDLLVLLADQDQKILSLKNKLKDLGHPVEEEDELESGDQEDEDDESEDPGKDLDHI
UniProt O75940: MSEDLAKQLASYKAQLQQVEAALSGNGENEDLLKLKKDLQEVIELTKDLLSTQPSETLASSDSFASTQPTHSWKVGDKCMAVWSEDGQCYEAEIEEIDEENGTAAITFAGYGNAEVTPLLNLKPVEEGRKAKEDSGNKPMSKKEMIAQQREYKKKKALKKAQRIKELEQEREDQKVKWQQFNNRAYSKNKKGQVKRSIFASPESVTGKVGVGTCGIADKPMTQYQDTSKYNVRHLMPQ
UniProt O75616: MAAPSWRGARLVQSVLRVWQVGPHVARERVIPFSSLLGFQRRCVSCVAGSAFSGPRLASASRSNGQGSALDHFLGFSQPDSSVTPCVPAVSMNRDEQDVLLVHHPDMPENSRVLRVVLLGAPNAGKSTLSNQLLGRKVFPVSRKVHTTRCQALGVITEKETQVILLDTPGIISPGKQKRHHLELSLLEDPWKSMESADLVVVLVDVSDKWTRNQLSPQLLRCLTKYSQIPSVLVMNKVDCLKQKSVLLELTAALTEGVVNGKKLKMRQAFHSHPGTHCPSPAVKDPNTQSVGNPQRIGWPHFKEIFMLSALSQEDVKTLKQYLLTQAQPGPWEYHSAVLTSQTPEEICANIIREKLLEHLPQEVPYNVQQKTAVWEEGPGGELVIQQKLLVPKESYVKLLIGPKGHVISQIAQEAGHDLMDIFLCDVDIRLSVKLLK
UniProt O75251, whole entry: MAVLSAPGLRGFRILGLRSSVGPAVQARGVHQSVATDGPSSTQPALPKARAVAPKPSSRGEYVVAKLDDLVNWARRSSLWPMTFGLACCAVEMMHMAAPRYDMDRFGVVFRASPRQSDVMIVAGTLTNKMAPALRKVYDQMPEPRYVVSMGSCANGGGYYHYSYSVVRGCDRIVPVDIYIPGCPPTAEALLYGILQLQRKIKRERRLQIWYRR
UniProt O43663: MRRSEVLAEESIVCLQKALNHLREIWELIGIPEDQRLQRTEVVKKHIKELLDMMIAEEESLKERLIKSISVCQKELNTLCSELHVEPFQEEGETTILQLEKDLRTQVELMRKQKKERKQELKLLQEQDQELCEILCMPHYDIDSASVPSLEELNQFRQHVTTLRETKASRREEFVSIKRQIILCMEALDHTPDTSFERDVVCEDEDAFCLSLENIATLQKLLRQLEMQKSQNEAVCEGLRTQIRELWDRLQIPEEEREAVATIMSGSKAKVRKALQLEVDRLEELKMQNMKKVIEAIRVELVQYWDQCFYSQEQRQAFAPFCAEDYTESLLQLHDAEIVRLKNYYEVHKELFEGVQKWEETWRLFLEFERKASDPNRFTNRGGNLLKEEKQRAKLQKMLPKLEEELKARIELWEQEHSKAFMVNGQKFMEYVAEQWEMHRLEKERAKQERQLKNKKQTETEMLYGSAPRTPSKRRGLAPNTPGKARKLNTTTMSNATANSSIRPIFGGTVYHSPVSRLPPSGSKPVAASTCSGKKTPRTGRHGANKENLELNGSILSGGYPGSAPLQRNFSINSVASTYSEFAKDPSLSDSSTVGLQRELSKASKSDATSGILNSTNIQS
UniProt O75448: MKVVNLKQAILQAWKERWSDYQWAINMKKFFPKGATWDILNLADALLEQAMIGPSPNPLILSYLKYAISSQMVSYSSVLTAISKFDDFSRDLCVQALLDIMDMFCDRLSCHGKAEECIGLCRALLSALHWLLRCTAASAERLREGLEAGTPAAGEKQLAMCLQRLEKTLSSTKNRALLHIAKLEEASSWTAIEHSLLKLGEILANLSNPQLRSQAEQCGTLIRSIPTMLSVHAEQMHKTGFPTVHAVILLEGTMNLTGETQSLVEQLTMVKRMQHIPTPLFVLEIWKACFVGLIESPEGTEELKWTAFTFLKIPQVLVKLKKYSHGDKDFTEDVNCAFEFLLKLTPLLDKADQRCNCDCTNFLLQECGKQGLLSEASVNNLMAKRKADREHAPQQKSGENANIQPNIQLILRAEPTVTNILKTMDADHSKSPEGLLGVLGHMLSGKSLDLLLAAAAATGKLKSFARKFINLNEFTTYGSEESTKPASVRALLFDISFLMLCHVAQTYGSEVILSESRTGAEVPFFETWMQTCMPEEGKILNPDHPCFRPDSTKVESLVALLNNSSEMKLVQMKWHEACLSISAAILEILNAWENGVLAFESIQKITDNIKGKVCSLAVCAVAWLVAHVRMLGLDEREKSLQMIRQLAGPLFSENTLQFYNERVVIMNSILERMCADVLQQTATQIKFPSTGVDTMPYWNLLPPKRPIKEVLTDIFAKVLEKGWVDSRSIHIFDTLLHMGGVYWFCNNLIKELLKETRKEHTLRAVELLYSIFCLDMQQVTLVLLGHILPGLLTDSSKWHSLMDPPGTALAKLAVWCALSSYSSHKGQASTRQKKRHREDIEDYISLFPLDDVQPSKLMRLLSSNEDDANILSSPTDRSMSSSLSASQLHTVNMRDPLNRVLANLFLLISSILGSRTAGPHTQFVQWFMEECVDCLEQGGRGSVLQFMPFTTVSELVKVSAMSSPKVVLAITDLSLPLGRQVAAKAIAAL
UniProt O43242, whole entry: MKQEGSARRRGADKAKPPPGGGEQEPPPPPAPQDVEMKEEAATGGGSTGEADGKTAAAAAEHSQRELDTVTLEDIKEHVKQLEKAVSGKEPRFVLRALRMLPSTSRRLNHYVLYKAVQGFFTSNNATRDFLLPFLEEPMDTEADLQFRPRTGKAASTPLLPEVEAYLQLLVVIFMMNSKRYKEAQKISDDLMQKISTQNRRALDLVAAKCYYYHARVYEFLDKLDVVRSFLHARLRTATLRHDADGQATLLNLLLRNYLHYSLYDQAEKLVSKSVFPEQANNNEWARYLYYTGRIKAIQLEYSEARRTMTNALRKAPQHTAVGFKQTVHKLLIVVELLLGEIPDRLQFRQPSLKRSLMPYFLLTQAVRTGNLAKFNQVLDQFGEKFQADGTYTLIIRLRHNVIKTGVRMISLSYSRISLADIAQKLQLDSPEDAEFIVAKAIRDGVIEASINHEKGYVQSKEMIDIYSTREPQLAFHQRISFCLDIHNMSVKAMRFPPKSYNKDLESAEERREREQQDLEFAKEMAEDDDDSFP
UniProt O60664: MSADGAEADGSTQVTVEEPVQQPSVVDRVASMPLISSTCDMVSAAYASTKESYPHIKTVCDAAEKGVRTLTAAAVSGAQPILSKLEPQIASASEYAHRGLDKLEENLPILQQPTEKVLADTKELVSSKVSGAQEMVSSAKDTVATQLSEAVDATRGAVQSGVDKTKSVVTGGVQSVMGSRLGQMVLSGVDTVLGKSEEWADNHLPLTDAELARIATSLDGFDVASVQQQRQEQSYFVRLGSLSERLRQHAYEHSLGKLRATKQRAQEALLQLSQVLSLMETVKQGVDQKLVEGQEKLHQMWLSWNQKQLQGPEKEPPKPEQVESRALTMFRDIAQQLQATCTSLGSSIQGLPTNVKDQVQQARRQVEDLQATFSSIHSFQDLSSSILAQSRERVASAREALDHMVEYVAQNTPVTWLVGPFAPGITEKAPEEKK
UniProt O43303: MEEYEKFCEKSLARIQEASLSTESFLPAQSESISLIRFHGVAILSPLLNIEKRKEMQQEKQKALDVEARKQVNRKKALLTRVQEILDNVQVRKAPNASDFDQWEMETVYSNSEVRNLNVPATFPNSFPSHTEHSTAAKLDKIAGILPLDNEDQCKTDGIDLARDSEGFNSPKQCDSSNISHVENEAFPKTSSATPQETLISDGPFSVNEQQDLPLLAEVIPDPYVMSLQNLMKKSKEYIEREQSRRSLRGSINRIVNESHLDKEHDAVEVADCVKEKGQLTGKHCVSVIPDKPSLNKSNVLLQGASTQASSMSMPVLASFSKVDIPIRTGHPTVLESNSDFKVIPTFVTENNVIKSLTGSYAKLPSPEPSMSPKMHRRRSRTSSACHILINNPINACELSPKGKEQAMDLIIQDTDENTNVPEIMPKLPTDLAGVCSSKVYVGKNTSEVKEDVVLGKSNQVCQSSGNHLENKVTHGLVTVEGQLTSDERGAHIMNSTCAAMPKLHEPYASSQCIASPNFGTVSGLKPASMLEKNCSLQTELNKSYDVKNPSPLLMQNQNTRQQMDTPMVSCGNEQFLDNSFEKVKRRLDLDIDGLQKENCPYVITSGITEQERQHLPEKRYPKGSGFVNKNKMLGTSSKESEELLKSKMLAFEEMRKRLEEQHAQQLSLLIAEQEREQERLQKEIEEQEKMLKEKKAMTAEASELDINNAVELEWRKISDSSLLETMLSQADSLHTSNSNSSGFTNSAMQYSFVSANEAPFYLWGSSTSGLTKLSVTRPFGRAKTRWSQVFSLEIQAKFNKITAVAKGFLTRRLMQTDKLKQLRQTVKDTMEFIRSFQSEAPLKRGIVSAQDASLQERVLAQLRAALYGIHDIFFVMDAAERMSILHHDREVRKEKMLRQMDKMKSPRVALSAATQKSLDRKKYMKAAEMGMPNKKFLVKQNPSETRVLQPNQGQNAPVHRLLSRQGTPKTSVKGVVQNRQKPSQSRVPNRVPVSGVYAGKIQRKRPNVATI

Each target was assayed with COC(=O)C#Cc1ccccc1 [methyl 3-phenylpropiolate] (assay: log2 ratio of iodoacetamide-alkyne labeling of the cysteine site, DMSO over compound (competition); higher = stronger covalent engagement of the cysteine by the compound, active = 1 or more). Details: 500 µM; treatment time 1 h; system: HEK293T cell lysate.
In short: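 HEK293T lysate at 2 mg/mL was treated with vehicle or electrophile (500 µM) for 1 h at ambient temperature, then labelled with iodoacetamide alkyne (1 h), clicked to sCIP-TMT reagents, pooled, digested with trypsin overnight at 37 °C, enriched on streptavidin and eluted with acid. Peptides were analysed by Orbitrap Eclipse LC-MS/MS with FAIMS and quantified in FragPipe, using duplicate channels and three replicates, with cysteines quantified in only one replicate excluded. The log2 competition ratio for each cysteine is the mean control-channel reporter intensity divided by the mean compound-channel reporter intensity.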

log2 ratio of iodoacetamide-alkyne labeling, inactive:
UniProt O75164_C533 0.679
UniProt O75521_C380 0.234
KIN C212 (UniProt O60870) 0.348
TBC1D4 C1286 (UniProt O60343) 0.473
USO1 C678 (UniProt O60763) 0.232
SMNDC1 C214 (UniProt O75940) 0.406
ERAL1 C425 (UniProt O75616) 0.325
ERAL1 C348 (UniProt O75616) 0.478
OPA1 C786 (UniProt O60313) 0.281
NDUFS7 C183 (UniProt O75251) 0.368
PRC1 C322 (UniProt O43663) 0.255
MED24 C336 (UniProt O75448) -0.0715
PSMD3 C483 (UniProt O43242) 0.233
UniProt O60664_C341 0.384
UniProt O43303_C535 0.837

2 consecutive records already listed, quoted:
log2 ratio of iodoacetamide-alkyne labeling, inactive:
ERAL1 C348 (UniProt O75616) 0.478
OPA1 C786 (UniProt O60313) 0.281
